From the supplement of paper PMC12819154, “High-throughput peptide-centric local stability assay extends protein–ligand identification to membrane proteins, tissues and bacteria” (Nature Structural & Molecular Biology, 2025)
Some of the results follow. Most values lie at the level of the controls, where differences are scatter.

Amino acid sequences for entries named in this document (tags omitted). A change or cut given only in a name is not applied to a line headed by its entry.
UniProt Q8K337: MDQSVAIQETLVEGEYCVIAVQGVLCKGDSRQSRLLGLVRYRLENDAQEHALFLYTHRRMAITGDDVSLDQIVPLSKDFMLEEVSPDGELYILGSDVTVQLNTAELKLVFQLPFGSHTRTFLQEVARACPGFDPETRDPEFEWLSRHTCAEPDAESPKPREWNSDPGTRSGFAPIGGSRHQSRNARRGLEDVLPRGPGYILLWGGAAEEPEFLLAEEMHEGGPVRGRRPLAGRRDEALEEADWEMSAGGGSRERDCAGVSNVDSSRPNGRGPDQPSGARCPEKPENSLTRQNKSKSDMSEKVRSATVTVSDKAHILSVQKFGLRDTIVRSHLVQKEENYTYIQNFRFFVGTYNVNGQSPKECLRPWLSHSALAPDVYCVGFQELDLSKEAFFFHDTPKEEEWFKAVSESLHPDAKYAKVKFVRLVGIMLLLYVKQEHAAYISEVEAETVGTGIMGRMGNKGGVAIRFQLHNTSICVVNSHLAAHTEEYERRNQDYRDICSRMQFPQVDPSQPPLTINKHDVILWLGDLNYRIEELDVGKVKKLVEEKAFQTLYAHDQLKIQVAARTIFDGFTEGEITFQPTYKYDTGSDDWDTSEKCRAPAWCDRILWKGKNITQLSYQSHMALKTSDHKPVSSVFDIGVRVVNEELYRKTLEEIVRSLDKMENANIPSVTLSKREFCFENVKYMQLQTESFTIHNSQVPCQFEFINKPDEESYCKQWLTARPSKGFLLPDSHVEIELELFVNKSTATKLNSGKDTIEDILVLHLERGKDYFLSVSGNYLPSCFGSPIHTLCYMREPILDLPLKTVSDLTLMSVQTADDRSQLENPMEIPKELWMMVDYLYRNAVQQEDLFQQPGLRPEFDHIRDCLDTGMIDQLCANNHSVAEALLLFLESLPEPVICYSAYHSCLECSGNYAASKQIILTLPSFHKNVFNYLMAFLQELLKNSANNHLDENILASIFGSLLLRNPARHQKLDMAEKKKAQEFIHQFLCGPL
UniProt Q8K157: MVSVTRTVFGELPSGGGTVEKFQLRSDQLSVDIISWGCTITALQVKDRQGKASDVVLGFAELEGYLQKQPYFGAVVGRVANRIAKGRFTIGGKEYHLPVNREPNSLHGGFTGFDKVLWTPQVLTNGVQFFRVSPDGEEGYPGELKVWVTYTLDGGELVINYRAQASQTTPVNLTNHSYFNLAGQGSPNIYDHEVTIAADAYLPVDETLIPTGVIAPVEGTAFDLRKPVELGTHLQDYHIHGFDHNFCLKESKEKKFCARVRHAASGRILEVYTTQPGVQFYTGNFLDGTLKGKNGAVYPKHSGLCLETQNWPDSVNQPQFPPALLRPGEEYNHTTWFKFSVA
UniProt Q8K389: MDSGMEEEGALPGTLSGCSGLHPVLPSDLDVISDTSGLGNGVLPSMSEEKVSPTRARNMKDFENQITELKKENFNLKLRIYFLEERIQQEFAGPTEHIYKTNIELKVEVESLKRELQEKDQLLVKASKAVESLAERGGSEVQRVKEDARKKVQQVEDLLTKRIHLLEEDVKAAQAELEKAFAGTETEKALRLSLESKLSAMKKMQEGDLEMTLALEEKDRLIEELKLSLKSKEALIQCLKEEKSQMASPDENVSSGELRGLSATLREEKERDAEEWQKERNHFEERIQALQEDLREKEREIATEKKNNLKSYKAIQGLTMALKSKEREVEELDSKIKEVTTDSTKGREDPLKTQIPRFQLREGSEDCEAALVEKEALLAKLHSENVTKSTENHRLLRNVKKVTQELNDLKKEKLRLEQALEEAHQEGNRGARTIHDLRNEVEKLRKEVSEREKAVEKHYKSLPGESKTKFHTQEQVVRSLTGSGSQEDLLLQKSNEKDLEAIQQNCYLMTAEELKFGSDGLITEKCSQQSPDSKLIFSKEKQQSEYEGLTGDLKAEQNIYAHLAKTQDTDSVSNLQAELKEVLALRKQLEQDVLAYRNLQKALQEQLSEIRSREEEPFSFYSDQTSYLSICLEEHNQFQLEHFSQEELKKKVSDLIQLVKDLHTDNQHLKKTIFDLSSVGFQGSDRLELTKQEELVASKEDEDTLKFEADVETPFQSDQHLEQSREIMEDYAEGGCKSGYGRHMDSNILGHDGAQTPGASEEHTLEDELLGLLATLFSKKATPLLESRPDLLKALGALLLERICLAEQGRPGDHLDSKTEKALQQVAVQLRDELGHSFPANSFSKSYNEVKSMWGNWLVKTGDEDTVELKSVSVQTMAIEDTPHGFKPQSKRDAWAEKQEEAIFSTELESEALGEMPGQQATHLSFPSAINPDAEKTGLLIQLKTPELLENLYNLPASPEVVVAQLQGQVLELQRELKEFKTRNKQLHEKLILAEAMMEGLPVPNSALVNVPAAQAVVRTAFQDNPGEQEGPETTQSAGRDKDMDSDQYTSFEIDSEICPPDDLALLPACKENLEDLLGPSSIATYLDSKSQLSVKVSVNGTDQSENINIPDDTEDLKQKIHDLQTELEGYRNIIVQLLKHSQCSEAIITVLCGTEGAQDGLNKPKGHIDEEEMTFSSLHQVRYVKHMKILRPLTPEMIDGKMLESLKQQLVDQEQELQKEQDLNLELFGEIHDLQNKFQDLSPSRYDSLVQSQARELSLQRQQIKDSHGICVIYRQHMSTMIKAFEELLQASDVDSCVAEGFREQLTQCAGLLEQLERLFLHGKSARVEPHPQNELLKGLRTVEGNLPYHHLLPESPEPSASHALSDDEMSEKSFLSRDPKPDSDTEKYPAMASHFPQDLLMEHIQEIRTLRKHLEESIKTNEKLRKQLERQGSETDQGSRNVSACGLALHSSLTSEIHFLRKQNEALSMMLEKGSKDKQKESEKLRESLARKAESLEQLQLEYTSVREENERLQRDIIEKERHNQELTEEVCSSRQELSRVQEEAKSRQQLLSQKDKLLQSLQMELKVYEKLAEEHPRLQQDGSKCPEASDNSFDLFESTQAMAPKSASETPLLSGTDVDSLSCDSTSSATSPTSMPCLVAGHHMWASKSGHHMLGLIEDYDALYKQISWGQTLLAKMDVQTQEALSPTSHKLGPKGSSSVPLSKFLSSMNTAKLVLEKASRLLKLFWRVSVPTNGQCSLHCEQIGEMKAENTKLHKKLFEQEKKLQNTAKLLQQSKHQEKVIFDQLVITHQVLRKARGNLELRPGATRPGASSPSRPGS
UniProt Q8K304: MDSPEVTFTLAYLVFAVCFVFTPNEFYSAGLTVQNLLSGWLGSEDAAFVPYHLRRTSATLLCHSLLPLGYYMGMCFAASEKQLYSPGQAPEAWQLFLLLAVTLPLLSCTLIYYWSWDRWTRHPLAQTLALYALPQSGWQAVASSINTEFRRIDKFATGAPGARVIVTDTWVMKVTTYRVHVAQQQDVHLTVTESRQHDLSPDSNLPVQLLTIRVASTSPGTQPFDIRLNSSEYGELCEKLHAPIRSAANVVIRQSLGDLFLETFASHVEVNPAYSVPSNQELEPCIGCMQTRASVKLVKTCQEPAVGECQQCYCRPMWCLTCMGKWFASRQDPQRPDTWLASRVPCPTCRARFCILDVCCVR
UniProt Q8K341: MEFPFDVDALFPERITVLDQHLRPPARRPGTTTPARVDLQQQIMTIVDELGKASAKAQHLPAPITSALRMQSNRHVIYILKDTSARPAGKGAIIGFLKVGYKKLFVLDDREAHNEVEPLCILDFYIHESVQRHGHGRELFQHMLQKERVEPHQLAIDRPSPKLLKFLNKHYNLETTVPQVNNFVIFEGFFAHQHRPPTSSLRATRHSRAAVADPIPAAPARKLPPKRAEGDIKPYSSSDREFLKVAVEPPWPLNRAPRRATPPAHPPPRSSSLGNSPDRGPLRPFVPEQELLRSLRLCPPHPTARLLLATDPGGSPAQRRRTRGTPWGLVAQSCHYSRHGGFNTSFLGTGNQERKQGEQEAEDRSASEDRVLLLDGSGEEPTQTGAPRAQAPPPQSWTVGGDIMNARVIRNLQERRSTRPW
UniProt Q8K3Z9, whole entry: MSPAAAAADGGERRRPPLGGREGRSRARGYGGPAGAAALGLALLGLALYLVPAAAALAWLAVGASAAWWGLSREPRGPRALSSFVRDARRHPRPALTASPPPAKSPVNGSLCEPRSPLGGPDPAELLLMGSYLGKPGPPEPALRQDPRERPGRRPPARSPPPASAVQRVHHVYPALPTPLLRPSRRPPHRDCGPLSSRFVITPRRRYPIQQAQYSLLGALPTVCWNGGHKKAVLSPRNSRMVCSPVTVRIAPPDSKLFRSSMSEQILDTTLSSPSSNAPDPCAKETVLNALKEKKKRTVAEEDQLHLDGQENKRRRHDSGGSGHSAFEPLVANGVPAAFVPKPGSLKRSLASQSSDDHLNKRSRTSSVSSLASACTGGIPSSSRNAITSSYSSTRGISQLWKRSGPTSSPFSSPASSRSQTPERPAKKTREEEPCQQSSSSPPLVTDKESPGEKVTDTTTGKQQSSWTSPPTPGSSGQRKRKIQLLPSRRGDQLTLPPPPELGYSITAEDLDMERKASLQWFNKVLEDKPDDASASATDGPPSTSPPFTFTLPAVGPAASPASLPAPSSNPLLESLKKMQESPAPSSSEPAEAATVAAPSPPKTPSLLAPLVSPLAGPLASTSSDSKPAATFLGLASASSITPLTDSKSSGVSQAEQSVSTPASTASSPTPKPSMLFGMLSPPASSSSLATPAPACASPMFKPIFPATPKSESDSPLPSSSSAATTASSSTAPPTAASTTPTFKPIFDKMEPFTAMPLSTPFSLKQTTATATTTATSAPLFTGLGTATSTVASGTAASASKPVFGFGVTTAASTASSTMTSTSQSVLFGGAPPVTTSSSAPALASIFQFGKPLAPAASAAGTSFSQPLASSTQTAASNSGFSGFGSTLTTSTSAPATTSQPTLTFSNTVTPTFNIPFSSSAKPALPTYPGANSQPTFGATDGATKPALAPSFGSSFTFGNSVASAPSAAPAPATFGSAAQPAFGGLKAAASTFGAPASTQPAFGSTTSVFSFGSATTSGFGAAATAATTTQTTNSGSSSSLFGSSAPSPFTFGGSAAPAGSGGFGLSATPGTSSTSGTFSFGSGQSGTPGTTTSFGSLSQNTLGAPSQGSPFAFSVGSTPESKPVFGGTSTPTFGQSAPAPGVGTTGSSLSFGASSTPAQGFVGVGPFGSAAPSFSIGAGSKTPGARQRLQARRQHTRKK

Compound: CN[C@@H]1C[C@H]2O[C@@](C)([C@@H]1OC)n1c3ccccc3c3c4c(c5c6ccccc6n2c5c31)C(=O)NC4 [staurosporine]
Assay: log2 fold change of tryptic peptide abundance, ligand vs vehicle (limited proteolysis) (log2 ratio); higher = more trypsin-susceptible (destabilized)
Conditions: ligand concentration: 20 uM; sample: mouse liver crude lysate; replicate design: treated separately

Row | Target | log2 fold change
1 | UniProt Q8K337 (peptide sequence: VVNEELYR, peptide start residue: 642) | 0.205
2 | UniProt Q8K157 (peptide sequence: EYHLPVNR, peptide start residue: 94) | 0.19
3 | UniProt Q8K389 (peptide sequence: AIQGLTMALK, peptide start residue: 314) | 0.357
4 | UniProt Q8K304 (peptide sequence: VIVTDTWVMK, peptide start residue: 164) | 0.37
5 | UniProt Q8K341 (peptide sequence: HVIYILK, peptide start residue: 75) | 0.301
6 | UniProt Q8K3Z9 (peptide sequence: SPAAAAADGGER, peptide start residue: 2) | -0.835
